Results deposited as PubChem BioAssay AID1259425 (University of Nebraska Medical Center, 2018).

Assay: 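Find knockdowns that reproduce the gene expression pattern seen when KSR1 is lost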 (primary screen)
Cell system: HCT116 human colon cancer cells
Knock-down reagent: siRNA pool against human genes, 50 nM siRNA
Detection: 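mRNA of six signature genes measured together by branched-DNA assay after 50 nM siRNA pool, blank removed, divided by geometric mean of two housekeeping genes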
Scale: BNIP3L mRNA: higher = more BNIP3L transcript after knockdown
In all, the deposit lists about 14,000 reagents; shown is an unselected part. A reagent listed more than once was tested more than once; the source does not tell the runs apart. Further read-outs or replicates are left out here. Not stated in the record: the time to read-out.

target | BNIP3L mRNA, set 1
EEF1AKMT3 (EEF1A lysine methyltransferase 3) | 0.161
CATSPERG (catsper channel auxiliary subunit gamma) | 0.155
UBASH3A (ubiquitin associated and SH3 domain containing A) | 0.0968
KLHL12 (kelch like family member 12) | 0.0847
CSNK2B (casein kinase 2 beta) | 0.0903
GOLGA7 (golgin A7) | 0.117
PSMD3 (proteasome 26S subunit, non-ATPase 3) | 0.159
LSR (lipolysis stimulated lipoprotein receptor) | 0.0869
PSG2 (pregnancy specific beta-1-glycoprotein 2) | 0.157
PLPPR2 (phospholipid phosphatase related 2) | 0.0889
NPR1 (natriuretic peptide receptor 1) | 0.185
NPR1 (natriuretic peptide receptor 1) | 0.11
BARX1 (BARX homeobox 1) | 0.0803
LDOC1 (LDOC1 regulator of NFKB signaling) | 0.087
QKI (QKI, KH domain containing RNA binding) | 0.13
PROCR (protein C receptor) | 0.0548
SMYD3 (SET and MYND domain containing 3) | 0.0857
ZNF18 (zinc finger protein 18) | 0.118
SHARPIN (SHANK associated RH domain interactor) | 0.0723
PIWIL2 (piwi like RNA-mediated gene silencing 2) | 0.0947
KCNJ1 (potassium inwardly rectifying channel subfamily J member 1) | 0.135
CENPI (centromere protein I) | 0.0774
SIGLEC1 (sialic acid binding Ig like lectin 1) | 0.209
IRF2 (interferon regulatory factor 2) | 0.3
ZBED3 (zinc finger BED-type containing 3) | 0.246
EMSY (EMSY transcriptional repressor, BRCA2 interacting) | 0.159
GCNT2 (glucosaminyl (N-acetyl) transferase 2 (I blood group)) | 0.123
ACHE (acetylcholinesterase (Yt blood group)) | 0.103
H2AC7 (H2A clustered histone 7) | 0.186
CMTM6 (CKLF like MARVEL transmembrane domain containing 6) | 0.0705
FFAR2 (free fatty acid receptor 2) | 0.361
SORBS1 (sorbin and SH3 domain containing 1) | 0.0753
PLPP3 (phospholipid phosphatase 3) | 0.0557
DUSP6 (dual specificity phosphatase 6) | 0.0631

Next part; the last 3 above are carried over.
target | BNIP3L mRNA, set 1
SORBS1 (sorbin and SH3 domain containing 1) | 0.0753
PLPP3 (phospholipid phosphatase 3) | 0.0557
DUSP6 (dual specificity phosphatase 6) | 0.0631
MAP1S (microtubule associated protein 1S) | 0.145
RASGRF1 (Ras protein specific guanine nucleotide releasing factor 1) | 0.236
DOC2B (double C2 domain beta) | 0.109
SMPX (small muscle protein X-linked) | 0.105
ACTR1B (actin related protein 1B) | 0.0781
NTN3 (netrin 3) | 0.156
MNS1 (meiosis specific nuclear structural 1) | 0.125
RGS17 (regulator of G protein signaling 17) | 0.0589
CD151 (CD151 molecule (Raph blood group)) | 0.0684
GTF2B (general transcription factor IIB) | 0.167
KIF11 (kinesin family member 11) | 0.0613
PLCE1 (phospholipase C epsilon 1) | 0.127
RER1 (retention in endoplasmic reticulum sorting receptor 1) | 0.221
SLBP (stem-loop histone mRNA binding protein) | 0.0671
CLDN14 (claudin 14) | 0.106
UBE2E2 (ubiquitin conjugating enzyme E2 E2) | 0.123
UBE2E2 (ubiquitin conjugating enzyme E2 E2) | 0.132
